No constants are given. Whether binding was seen depends on the method and setting. Binding seen in cells or lysates may run through a third protein. A yes stands for co-enrichment or nearness to the bait. Other partners may have been found. Where a sequence is shown, tags or fusion partners need not be part of it.

Protein sequences, listed by entry. Tags and fused reporters are not part of them. Residues count along the entry.
UniProt Q03265, residues 44-553: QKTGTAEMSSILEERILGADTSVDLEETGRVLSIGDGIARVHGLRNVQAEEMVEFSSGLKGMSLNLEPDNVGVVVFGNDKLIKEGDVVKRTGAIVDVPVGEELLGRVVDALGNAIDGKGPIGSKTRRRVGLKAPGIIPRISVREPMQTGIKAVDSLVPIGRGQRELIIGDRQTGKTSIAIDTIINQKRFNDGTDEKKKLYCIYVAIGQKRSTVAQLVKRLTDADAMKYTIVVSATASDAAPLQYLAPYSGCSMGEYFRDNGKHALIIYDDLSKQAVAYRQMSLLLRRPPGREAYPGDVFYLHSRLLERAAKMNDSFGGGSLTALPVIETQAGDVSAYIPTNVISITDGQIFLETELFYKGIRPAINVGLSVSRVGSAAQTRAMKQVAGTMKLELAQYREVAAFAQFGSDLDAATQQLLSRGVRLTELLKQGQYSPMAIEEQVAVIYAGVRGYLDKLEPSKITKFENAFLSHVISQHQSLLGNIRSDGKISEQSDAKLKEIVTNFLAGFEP
UniProt P56480, residues 47-529: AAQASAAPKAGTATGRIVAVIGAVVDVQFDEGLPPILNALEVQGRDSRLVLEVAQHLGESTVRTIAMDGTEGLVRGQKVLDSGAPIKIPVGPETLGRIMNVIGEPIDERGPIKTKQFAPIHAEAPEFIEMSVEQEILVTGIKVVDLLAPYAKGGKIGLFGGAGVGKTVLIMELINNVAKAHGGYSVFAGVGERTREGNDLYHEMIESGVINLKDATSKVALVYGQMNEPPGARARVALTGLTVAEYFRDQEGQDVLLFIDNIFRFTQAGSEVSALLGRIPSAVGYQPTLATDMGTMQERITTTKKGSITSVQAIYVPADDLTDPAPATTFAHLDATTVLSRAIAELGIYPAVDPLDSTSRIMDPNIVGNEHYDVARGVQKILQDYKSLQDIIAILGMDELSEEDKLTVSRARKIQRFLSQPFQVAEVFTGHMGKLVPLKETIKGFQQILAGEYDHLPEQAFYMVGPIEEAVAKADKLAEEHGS
UniProt P05213: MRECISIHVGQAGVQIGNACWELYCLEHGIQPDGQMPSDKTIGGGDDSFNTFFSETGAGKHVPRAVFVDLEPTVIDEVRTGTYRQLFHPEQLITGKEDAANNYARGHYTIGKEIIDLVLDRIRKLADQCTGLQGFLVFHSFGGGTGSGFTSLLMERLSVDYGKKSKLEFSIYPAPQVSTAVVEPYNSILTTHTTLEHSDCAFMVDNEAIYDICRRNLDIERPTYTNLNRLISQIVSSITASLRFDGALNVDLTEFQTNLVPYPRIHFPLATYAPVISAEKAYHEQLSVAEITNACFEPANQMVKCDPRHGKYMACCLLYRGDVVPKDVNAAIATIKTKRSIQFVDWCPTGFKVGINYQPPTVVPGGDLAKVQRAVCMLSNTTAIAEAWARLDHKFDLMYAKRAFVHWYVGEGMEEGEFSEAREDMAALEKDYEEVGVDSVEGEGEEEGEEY
UniProt P99024: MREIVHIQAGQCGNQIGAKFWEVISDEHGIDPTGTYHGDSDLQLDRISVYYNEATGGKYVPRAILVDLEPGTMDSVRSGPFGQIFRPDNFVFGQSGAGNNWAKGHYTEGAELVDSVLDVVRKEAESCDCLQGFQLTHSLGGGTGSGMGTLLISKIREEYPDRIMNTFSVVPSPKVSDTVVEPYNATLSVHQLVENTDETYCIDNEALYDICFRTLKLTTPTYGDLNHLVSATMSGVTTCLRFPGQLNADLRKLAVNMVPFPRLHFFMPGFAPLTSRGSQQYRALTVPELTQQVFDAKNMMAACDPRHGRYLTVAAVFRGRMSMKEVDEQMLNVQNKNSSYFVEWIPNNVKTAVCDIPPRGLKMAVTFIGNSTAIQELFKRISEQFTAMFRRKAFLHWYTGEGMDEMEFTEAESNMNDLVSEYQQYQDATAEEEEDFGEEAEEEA

Assay [1] deals with T1, recombinant mouse short-form Klotho with C-terminal Flag and 6xHis (mIMCD) (mouse) (UniProt O35082).
T1 sequence: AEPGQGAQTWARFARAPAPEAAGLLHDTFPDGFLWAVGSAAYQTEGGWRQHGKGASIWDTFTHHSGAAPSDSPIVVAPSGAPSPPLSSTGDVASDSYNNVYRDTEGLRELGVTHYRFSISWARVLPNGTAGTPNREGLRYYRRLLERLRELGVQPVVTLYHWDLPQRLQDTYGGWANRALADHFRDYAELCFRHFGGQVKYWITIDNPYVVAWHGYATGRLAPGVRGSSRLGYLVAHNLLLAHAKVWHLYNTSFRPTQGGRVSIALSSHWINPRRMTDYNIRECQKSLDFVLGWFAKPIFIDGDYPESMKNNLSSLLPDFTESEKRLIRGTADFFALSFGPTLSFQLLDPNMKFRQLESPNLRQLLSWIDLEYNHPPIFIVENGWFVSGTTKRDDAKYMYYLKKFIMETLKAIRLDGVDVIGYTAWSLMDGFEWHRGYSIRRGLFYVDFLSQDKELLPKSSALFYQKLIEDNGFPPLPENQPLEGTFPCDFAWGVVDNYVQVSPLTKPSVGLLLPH
Description: affinity purification with mass spectrometry; lysates of mIMCD cells expressing Skl-Flag-6xHis, Klotho or Flag antibody on IP-Direct beads, low-pH elution, SDS-PAGE, in-gel trypsin digest, nano-LC-nano-ESI MS/MS, Mascot search of Swiss-Prot; compared with control cells.

For assay [2], the target named is T2, recombinant mouse short-form Klotho with C-terminal Flag and 6xHis (HEK293) (mouse) (UniProt O35082).
T2 sequence (chain, N-glycosylated at N161, N285 and N346): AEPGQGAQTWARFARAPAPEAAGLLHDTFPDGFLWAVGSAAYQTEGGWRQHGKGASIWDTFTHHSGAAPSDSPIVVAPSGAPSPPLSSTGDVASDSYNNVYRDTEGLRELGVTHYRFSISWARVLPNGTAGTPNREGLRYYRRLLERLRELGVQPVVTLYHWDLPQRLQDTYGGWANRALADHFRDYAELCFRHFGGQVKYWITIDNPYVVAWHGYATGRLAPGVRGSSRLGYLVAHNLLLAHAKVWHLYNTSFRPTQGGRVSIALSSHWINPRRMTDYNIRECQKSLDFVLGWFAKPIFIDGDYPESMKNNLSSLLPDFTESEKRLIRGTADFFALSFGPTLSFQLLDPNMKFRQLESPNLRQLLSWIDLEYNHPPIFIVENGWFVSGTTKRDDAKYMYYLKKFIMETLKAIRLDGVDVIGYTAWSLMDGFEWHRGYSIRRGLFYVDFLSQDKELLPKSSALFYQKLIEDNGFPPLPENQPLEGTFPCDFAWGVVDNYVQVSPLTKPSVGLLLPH
Description: affinity purification with mass spectrometry; lysates of HEK293 cells expressing Skl-Flag-6xHis, Klotho or Flag antibody on IP-Direct beads, low-pH elution, SDS-PAGE, in-gel trypsin digest, nano-LC-nano-ESI MS/MS, Mascot search of Swiss-Prot; compared with control cells.

Consider “ATP synthase subunit alpha, mitochondrial (from UniProt Q03265 44-553)”, for which, in assay [1], the binding result was “binds”.
On the same count and under the same terms, in the case of “ATP synthase subunit beta, mitochondrial (from UniProt P56480 47-529)” it was “binds”; in that of “Tubulin alpha-1B chain (from UniProt P05213 1-451)”, “binds”.
Regarding “Tubulin beta-5 chain (from UniProt P99024 1-444)”, the binding entry in assay [1] is listed as “binds”.

B1: S-formylglutathione hydrolase (mouse, mIMCD) (enzyme, UniProt Q9R0P3 1-282)
chain: MALKQISSNRCFGGLQKVFEHSSVELKCKMRFAVYLPPQAESGKCPALYWLSGLTCTEQNFISKSGYQQAASEHGLVVIAPDTSPRGCNIKGEDDSWDFGTGAGFYVNATEDPWKANYRMYSYVTEELPQLINANFPVDPQRMSIFGHSMGGHGALICALKNPGKYRSVSAFAPICNPVLCSWGKKAFSGYLGPDESKWKAYDATCLVKAYSGSQIDILIDQGKDDEFLSNGQLLPDNFIAACTEKKIPVVFRLQEGYDHSYYFIATFIADHIRHHAKYLNA
As to B1, the binding result in assay [1] is “binds”.

B2: Alpha-crystallin B chain (protein, UniProt P23927 1-175)
chain: MDIAIHHPWIRRPFFPFHSPSRLFDQFFGEHLLESDLFSTATSLSPFYLRPPSFLRAPSWIDTGLSEMRLEKDRFSVNLDVKHFSPEELKVKVLGDVIEVHGKHEERQDEHGFISREFHRKYRIPADVDPLTITSSLSSDGVLTVNGPRKQVSGPERTIPITREEKPAVAAAPKK
Take B2: the binding result in assay [1] was “binds”.

B3: Retrotransposon-like protein 1 (protein, UniProt A6NKG5 1-1358)
chain: MIEPSEDSFETMMEHKNPSSKQMESSEGSSNTTEATSGSGVRGEAGPASGPAQEKKEPPSGPLQEMEELPTDLLQDMEEPSSGPRKEIEDPPNDLLQDLEESCNGSHQARGDPLSGASDRMKEASVNPSGAREEQEAHTDLKESGREETPQEQNQTEHSTAELMAMVRSIISLYFRMQDLKEQQRVAEEILIKGINAGQLPAPKHFSGDRREFHEFIVLCQLTLQSYPRMFYNDRLRVGYVINHLSGLALEWAKALLQENSPLIGDFPAFLEAMSEVFEYRQALRVAEEAMFTIRQGGRSATEYIDEFQSLVPILGWPDEVLQAHLCQGLNEEIRHYLFRVPQPDSLDSLIVLILQIEEKLAERRAMLRLPPEARPRNLTWIDSPAPERWMVSSWLPSEVHPDINRAHLFLLLMVRVNPYHSVAVQALVDSGADGNFMDEKFAQEHYVELYEKPYPQPVQSVDGSLIGNEPVWLYTEPLVCIHQNHQESIEFDIVPSPNFSVVLGIRWLRVHAPEVDWIKGRCTFHSPYCLKNCFRPPPPCIALERHGMSLLPGLPHPYSDLADVFNPKEADDETSDQPSSDGSDDLSESEPSELQQAGDSDHSETFYECPSTAPWEPVGARMQERARLQEEYWDLQDMLTNRQDYIQMIPELFDQLHGAEWFTKLELRGTIVEESVNGHRTEDVWKAAFGLELEEMKSYQPFALSPDPIIPQNVIHFILKDMLGFFVLSYGQEVLIYSMSQEEHLHHVRQVLVRFRHHNVYCSLDKSQFHRQTVEFLGFVVTPKGVKLNKNVMTIITGYPTPGSKLSLRNFIEFVFPYRHFVERFSIIAEPLVRQLLSSYQFYWGVEEQEAFECLKRAFRKAPLLHHPKPQNPFYLETGVTGTALHASLIQIDDQTGKRACCAFYSRNISPIEVEYSQAEMKILPIRAAFMVWCRYLENTEEPIMILLNTEDLASLNNDRLTVLLPGHWVFFFSHFNFDVMELPEQDGGRALPPVRNLRWRRAFQRNTAARQTLLLASRGFPRDPSTESGEEENEEQDELNEQILRQELLAMIPIDQILNSFLAHFSMAQIRAVILHFFRGLLYWKNTLALAAILVLLRVRQCLSLRPAPAMRVARPQPQRSLRLILDSSLIAGSSITTAITQLLTQMPALVGANTIPAQELAELFLGPGRWQRNALHSQAHRGLQFTPGFWLTLCEFFGVRVTPQEGHLPALRQNRYLELHVVGDEDVVLREALQDDLQRYRQCGLHDGLQDTSQDKQDNDVQEAPPSHTAATHPPRPRHLMDPQVLEFLGSRLLHIHSADGQLHLLSREQAARALSQFLTLIYRRALPIPAWESQPREQARLEELPDEDEDANLD
Consider B3, for which the binding entry in assay [2] was “binds”.

B4: Serpin H1 (protein, UniProt P50454 19-418)
chain: AEVKKPAAAAAPGTAEKLSPKAATLAERSAGLAFSLYQAMAKDQAVENILVSPVVVASSLGLVSLGGKATTASQAKAVLSAEQLRDEEVHAGLGELLRSLSNSTARNVTWKLGSRLYGPSSVSFADDFVRSSKQHYNCEHSKINFRDKRSALQSINEWAAQTTDGKLPEVTKDVERTDGALLVNAMFFKPHWDEKFHHKMVDNRGFMVTRSYTVGVMMMHRTGLYNYYDDEKEKLQIVEMPLAHKLSSLIILMPHHVEPLERLEKLLTKEQLKIWMGKMQKKAVAISLPKGVVEVTHDLQKHLAGLGLTEAIDKNKADLSRMSGKKDLYLASVFHATAFELDTDGNPFDQDIYGREELRSPKLFYADHPFIFLVRDTQSGSLLFIGRLVRPKGDKMRDEL
With B4, in assay [2], the binding result was “binds”.

B5: S-formylglutathione hydrolase (human, HEK293) (enzyme, UniProt P10768 1-282)
chain: MALKQISSNKCFGGLQKVFEHDSVELNCKMKFAVYLPPKAETGKCPALYWLSGLTCTEQNFISKSGYHQSASEHGLVVIAPDTSPRGCNIKGEDESWDFGTGAGFYVDATEDPWKTNYRMYSYVTEELPQLINANFPVDPQRMSIFGHSMGGHGALICALKNPGKYKSVSAFAPICNPVLCPWGKKAFSGYLGTDQSKWKAYDATHLVKSYPGSQLDILIDQGKDDQFLLDGQLLPDNFIAACTEKKIPVVFRLQEGYDHSYYFIATFITDHIRHHAKYLNA
As to B5, the binding result in assay [2] was “binds”.

For the origin of these results see paper PMC5687603.
